Test results taken from paper PMC4106877.
Results are given in words; binding and its absence hold for the method and conditions named. In cells and extracts the contact can be indirect. Some binding calls cover weakened binding; strength is not graded here.

By UniProt entry, the sequences of proteins in these tests, tags left out.
UniProt P0A3F4: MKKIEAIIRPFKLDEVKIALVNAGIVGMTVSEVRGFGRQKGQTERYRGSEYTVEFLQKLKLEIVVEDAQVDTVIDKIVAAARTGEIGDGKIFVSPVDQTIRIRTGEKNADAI

Biological target: T1, NAGK-FL25-C (UniProt Q6V1L5)
T1 sequence: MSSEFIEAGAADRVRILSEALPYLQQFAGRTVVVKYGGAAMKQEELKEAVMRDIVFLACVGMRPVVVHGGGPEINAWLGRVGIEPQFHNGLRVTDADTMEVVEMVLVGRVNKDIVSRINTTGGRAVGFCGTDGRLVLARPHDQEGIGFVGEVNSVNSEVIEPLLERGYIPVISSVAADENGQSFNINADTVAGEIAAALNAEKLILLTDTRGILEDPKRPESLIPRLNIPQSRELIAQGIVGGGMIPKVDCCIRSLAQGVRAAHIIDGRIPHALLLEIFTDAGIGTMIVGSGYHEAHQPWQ
Experiment: FRET or BRET; FRET ratio (525 nm / 475 nm emission) of NAGK-FL25-C and PII-ST-V incubated together in a reaction mix. ATP was present (0.1 mM, 0.075 mM or 2 mM, depending on the panel). Effectors (2-OG, ADP, other metabolites) were added to dissociate the complex. Triplicates.

- binding: binds
Substance: PII-ST-V (from UniProt P0A3F4 1-112)
